Measurements as given in US6342481B1 (priority 1993, dated 2002).
Some peptides are written in HELM: one residue between dots, names in brackets for other building blocks, links after the first $. Non-standard residues stand in square brackets, D forms with d. *: point of attachment. Cbz = O=C(OCc1ccccc1)*; Sar = CNCC(=O)O

Experiment: general procedure: solution-phase peptide synthesis; BOP/HOBT/TEA; PyBrop/DIPEA; DCC/N-hydroxysuccinimide
Settings: coupling step, acetate (AcOH), TFA for some

Row | Substance | crude HPLC purity [%]
1 | Z-Gly-(Et)Lys(Boc)-Pro-DArg-OH | 82
2 | Z-Gly-(Et)Lys(Boc)-Pro-Leu-OtBu | >99
3 | Z-Gly-(Et)Lys(Boc)-Pro-Lys(Boc)-OtBu | 90
4 | Z-Leu-(Et)Lys(Boc)-Pro-Arg-OH | 84

Same assay, conditions: late stage modification step, TFA

Row | Substance | final HPLC purity [%]
5 | Z-Leu-(Et)Lys-Pro-Arg-OH.TFA | 98

Same assay, conditions: late stage modification step, acetate (AcOH), TFA for some

Row | Substance | final HPLC purity [%]
6 | Cbz-[Sar]KPR-OH | >95
7 | H-Gly-(Et)Lys-Pro-Lys-OH.AcOH | 98.9
8 | H-Sar-Lys-Pro-Arg-OH.2AcOH | >99
9 | PEPTIDE1{G.[EtLys].P.L}$$$$V2.0 | 98
10 | PEPTIDE1{G.[EtLys].P.[dR]}$$$$V2.0 | 98.1
11 | PEPTIDE1{L.[EtLys].P.R}$$$$V2.0 | 97
12 | Z-Gly-(Et)Lys-Pro-DArg-OH.TFA | 98.9

Same assay, conditions: purification step, acetate (AcOH), TFA for some

Row | Substance | final HPLC purity [%]
13 | Z-Gly-(Et)Lys-Pro-Arg-OH.2AcOH | 97.5

Same assay, conditions: whole synthesis, acetate (AcOH), TFA for some

Row | Substance | final HPLC purity [%]
14 | H-Gly-(Bzl)Lys-Pro-Arg-OH.2AcOH | >99
15 | PEPTIDE1{G.P.P.R}$$$$V2.0 | >98
16 | PEPTIDE1{G.[isoBuLys].P.R}$$$$V2.0 | >98
